Test results: patent US10525115B2 (Immatics Biotechnologies GmbH, priority 2014, dated 2020)

What was measured:
primary AML samples = experiment: HLA class II ligandome analysis (LC-MS/MS) of primary AML samples; design: species or system human; conditions: HLA class II ligandome, AML patients n=12
[1] = test system: cancer tissues in comparison to non-cancerous tissues and organs; experiment: Presentation profile / over-presentation by label-free LC-MS (XPRESIDENT), tumor versus normal tissues, other proliferative diseases; design: species or system human; conditions: other proliferative diseases / organs (other than AML) that over- or exclusively present the peptide; Table 5

Substance | Number of positive AMLs (primary AML samples) | Proliferative disease and location thereof [1]
502 (KPGVTTEEIDHAVH; listed as Homo sapiens) [compound 502] | 3 | endometrium, adenocarcinoma
584 (VFRQYASLTGTQALPP; listed as Homo sapiens) [compound 584] | 1 | liver, hepatocellular carcinoma, cancer, small intestine, gastrointestinal stromal tumor
483 (DSNEFSVIADPRGNTL; listed as Homo sapiens) [compound 483] | 1 | liver, hepatocellular carcinoma, cancer, thyroid; gland, nodular hyperplasia
519 (IVSGKDYNVTANSKL; listed as Homo sapiens) [compound 519] | 1 | kidney, clear cell renal cell carcinoma, kidney, renal cell carcinoma
591 (ESEARFRIDSVSEGNAGPY; listed as Homo sapiens) [compound 591] | 1 | pancreas, adenocarcinoma, lipoma
481 (DSNEFSVIADPRGN; listed as Homo sapiens) [compound 481] | 1 | liver, hepatocellular carcinoma, cancer, thyroid; gland, nodular hyperplasia
543 (DPASFRAAIGLLARH; listed as Homo sapiens) [compound 543] | 3 | kidney, clear cell renal cell carcinoma, colon, adenocarcinoma
466 (KTEEFEVTKTAVAHRPG; listed as Homo sapiens) [compound 466] | 3 | liver, hepatocellular carcinoma, cancer, lung, adenocarcinoma
581 (RKKAKTTKKIVL; listed as Homo sapiens) [compound 581] | 1 | liposarcoma
462 (GVVHSFSHNVGPGDK; listed as Homo sapiens) [compound 462] | 2 | liver, hepatocellular carcinoma, cancer, lung, adenocarcinoma
455 (EMRKLQATVQELQKR; listed as Homo sapiens) [compound 455] | 1 | lymph node, non-Hodgkin's lymphoma
594 (SEARFRIDSVSEGNAGPY; listed as Homo sapiens) [compound 594] | 3 | pancreas, adenocarcinoma, lipoma
538 (ESDTSYVSLKAPLT; listed as Homo sapiens) [compound 538] | 2 | liver, hepatocellular carcinoma, cancer
507 (YPTPDISWSKLDGSLPPD; listed as Homo sapiens) [compound 507] | 1 | pancreas, adenocarcinoma, myometrium, leiomyoma
490 (PEFDGKRFQNVAKE; listed as Homo sapiens) [compound 490] | 1 | liver, hepatocellular carcinoma, cancer, thyroid; gland, nodular hyperplasia
559 (TPPRLVAPRFLEVE; listed as Homo sapiens) [compound 559] | 1 | stomach, metastatic, non-Hodgkin's lymphoma
509 (GGQVIVAIPKLQTQQ; listed as Homo sapiens) [compound 509] | 1 | parathyroid gland, adenoma
576 (DNMLLAEGVSGPEK; listed as Homo sapiens) [compound 576] | 2 | liver, hepatocellular carcinoma, adrenal gland, adrenal cortical adenoma

Substance | Number of positive AMLs (primary AML samples) | Proliferative disease and location thereof [1]
501 (IKPGVTTEEIDHAVH; listed as Homo sapiens) [compound 501] | 4 | endometrium, adenocarcinoma
494 (LPQLVGVSTPLQGGS; listed as Homo sapiens) [compound 494] | 3 | kidney, clear cell renal cell carcinoma, endometrium, adenocarcinoma
597 (GNQLFRINEANQLMQ; listed as Homo sapiens) [compound 597] | 2 | stomach, adenocarcinoma, prostate, adenocarcinoma
529 (RLPIIDVAPLDVGAPD; listed as Homo sapiens) [compound 529] | 3 | pancreas, adenocarcinoma, chondrosarcoma
532 (SRLPIIDVAPLDVGAPDQE; listed as Homo sapiens) [compound 532] | 1 | pancreas, adenocarcinoma, chondrosarcoma
478 (HRSFVDLSGHNLANPHP; listed as Homo sapiens) [compound 478] | 3 | brain, glioblastoma, parotid gland, pleomorphic; adenoma
506 (YPTPDISWSKLDGSLPP; listed as Homo sapiens) [compound 506] | 1 | pancreas, adenocarcinoma, myometrium, leiomyoma
528 (LPIIDVAPLDVGAPD; listed as Homo sapiens) [compound 528] | 1 | pancreas, adenocarcinoma, chondrosarcoma
516 (WGALATISTLEAVRG; listed as Homo sapiens) [compound 516] | 2 | lung, non-small cell lung carcinoma, liver, hepatocellular carcinoma
558 (SPNIVIALSGNKADLA; listed as Homo sapiens) [compound 558] | 3 | brain, glioblastoma, endometrium, adenocarcinoma
510 (GQVIVAIPKLQTQ; listed as Homo sapiens) [compound 510] | 1 | parathyroid gland, adenoma
561 (TPPRLVAPRFLEVETS; listed as Homo sapiens) [compound 561] | 3 | stomach, metastatic, non-Hodgkin's lymphoma
550 (QALDFFGNGPPVNYKTG; listed as Homo sapiens) [compound 550] | 1 | lung, non-small cell lung carcinoma, bone, non- ossifying fibroma
526 (KTSRLPIIDVAPLDVGAPD; listed as Homo sapiens) [compound 526] | 1 | pancreas, adenocarcinoma, chondrosarcoma
517 (ADELALVDVIEDK; listed as Homo sapiens) [compound 517] | 1 | kidney, clear cell renal cell carcinoma, kidney, renal cell carcinoma
596 (GNQLFRINEANQL; listed as Homo sapiens) [compound 596] | 1 | stomach, adenocarcinoma, prostate, adenocarcinoma
500 (SGSGPSLKGEEEPLVASEDGAVD; listed as Homo sapiens) [compound 500] | 1 | rectum, adenocarcinoma
